In patent publication US20240335453A1, “METALLO-ß-LACTAMASE INHIBITORS” (University of KwaZulu-Natal, priority 2021, published 2024):
Some of these results come from one statement about several compounds together.

Tested on: MBL-producing bacteria
Assay: MIC, restoration of meropenem activity
Format: cell-based
Conditions: in combination with meropenem; class of MBL-producing bacteria

Row | SMILES | Lowest meropenem concentration at which activity was restored [mg/L]
1 | O=C(O)CN1CCN(CC(=O)O)CCN(CC(=O)O)CC1 [TG1, 1,4,7-triazacyclononane-1,4,7-triacetic acid] | ≥ 0.03
2 | CCN1CCN(CC)CCN(C(CC(=O)NC2C(=O)N3C(C(=O)[O-])=C(C[n+]4ccccc4)CSC23)C(=O)OC)CC1 (centres unmarked) [BP1] | ≥ 0.03
